{
  "source": "paper PMC7932937",
  "about": "(Clinical Pharmacokinetics, 2020)",
  "origin": "cited, not measured here",
  "conditions": "in the presence of ritonavir-boosted darunavir ref 32; cited from earlier work",
  "data": [
    {"smiles": "CC(C)c1c(C(=O)Nc2ccccc2)c(-c2ccccc2)c(-c2ccc(F)cc2)n1CC[C@@H](O)C[C@@H](O)CC(=O)O", "note": "[atorvastatin]", "values": [
      {"measurement": "increase in atorvastatin exposure", "value": "200–300%"}
    ]}
  ]
}
